Some of the results follow. Shown are side measurements of this screen, not its main read-out; they come without a call. The list favours compounds with an active or inconclusive main result. The note in brackets gives the kind of curve behind each potency; many fits are weak.

This experiment is described as follows: A High-Content qHTS Against Drug Library for the Identification of Small Molecules that Inhibit DYT1 Early Onset Primary Dystonia-Associated Cell Pathology (AID 1645839). The conditions noted are these: HEK293 Flp-In EGFP-delE TorsinA, punctate imaging, 48 h; measured here: cell count cytotoxicity. In a few lines:
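In this high-content image screen, delE TorsinA mislocalization in inducible Flp-In 293 cells is scored as %pathology, with cell count serving as the counterscreen. Compound exposure lasts 48 h under tetracycline induction in reduced-serum medium.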
On the technique in general: qHTS replaces the single test concentration by a dilution series.
On to `CN1CCCC(CC2c3ccccc3Sc3ccccc32)C1` (configuration not stated), for which the concentration at half-maximal activity (AC50) (usually the concentration at which the activity in the assay is half-maximal) is 7.08 µM [falling, partial curve, poor fit].

Regarding `O=C(/C=C/c1ccccc1)NCCO`, the AC50 is 22.4 µM [falling, single point].

Regarding `CCc1oc2ccccc2c1C(=O)c1cc(Br)c(O)c(Br)c1`, the AC50 was 35.5 µM [falling, single point].

With `C[C@@H](O[C@H]1OCCN(Cc2n[nH]c(=O)[nH]2)[C@H]1c1ccc(F)cc1)c1cc(C(F)(F)F)cc(C(F)(F)F)c1`, the concentration at half-maximal activity (AC50) is 35.5 µM [falling, single point].

In the case of `NS(=O)(=O)c1cc2c(cc1C(F)(F)F)NCNS2(=O)=O`, the AC50 was 5.62 µM [rising, single point].

Consider `CC(=O)Oc1ccc2c(c1)CC[C@@H]1[C@@H]2CC[C@]2(C)[C@@H](O)CC[C@@H]12`, for which the AC50 is 10 µM [falling, partial curve, poor fit].

With `CCOC(=O)[C@H](CCc1ccccc1)N[C@@H](C)C(=O)N1[C@H](C(=O)O)C[C@@H]2CCC[C@@H]21`, the AC50 was 35.5 µM [rising, single point].
